The source of these data is paper PMC4604347, “Local regulation of the Srs2 helicase by the SUMO-like domain protein Esc2 promotes recombination at sites of stalled replication”.

For some of these results: The comparison behind a weaker result is the experiment's own reference, which may not be listed here. Protein sequences can lack the tags named with them. Construct, isoform or probe ends are uncertain for at least one entry. At least one verdict was read from the data and is not stated in words by the source.

Experiment in all cases: EMSA
(In general: Mobility shift assays separate free from complexed probe on a gel.)

Data set [1] concerns the target T1, Esc2 1-374 (Saccharomyces cerevisiae) (UniProt Q06340).
T1 sequence (looked up): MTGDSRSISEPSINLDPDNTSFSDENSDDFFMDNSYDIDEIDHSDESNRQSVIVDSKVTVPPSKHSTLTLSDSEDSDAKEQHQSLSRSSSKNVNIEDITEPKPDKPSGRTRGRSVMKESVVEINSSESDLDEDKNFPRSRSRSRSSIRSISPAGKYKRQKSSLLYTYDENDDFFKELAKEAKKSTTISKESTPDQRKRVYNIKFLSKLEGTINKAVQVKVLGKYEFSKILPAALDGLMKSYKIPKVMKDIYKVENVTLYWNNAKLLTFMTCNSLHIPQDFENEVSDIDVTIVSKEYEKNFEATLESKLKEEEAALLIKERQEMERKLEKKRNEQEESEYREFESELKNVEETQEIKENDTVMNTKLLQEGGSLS
The following applies: highly proficient, 7 nM DNA, 0-1000 nM protein, 7 nM fluorescein-labeled DNA, 10 min at 37 C, recombinant protein, residues 1-374, label: 5'-fluorescein on strand 1, folded or branched DNA.

Data set [2] addresses T2, Esc2 1-294 (Saccharomyces cerevisiae) (UniProt Q06340).
T2 sequence (looked up): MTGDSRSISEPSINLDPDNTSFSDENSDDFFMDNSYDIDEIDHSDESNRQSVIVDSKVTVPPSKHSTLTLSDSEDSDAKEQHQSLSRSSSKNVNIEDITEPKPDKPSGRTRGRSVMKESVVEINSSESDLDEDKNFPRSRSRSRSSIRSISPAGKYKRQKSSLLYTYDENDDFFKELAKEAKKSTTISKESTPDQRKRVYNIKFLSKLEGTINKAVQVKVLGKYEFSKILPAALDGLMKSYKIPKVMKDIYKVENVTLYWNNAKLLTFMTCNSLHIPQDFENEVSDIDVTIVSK
The following applies: highly proficient, 7 nM DNA, 0-1000 nM protein, 7 nM fluorescein-labeled DNA, 10 min at 37 C, recombinant protein, residues 1-294, label: 5'-fluorescein on strand 1, folded or branched DNA.

Data set [3] deals with T3, Esc2 (Saccharomyces cerevisiae) (UniProt Q06340).
T3 sequence (looked up): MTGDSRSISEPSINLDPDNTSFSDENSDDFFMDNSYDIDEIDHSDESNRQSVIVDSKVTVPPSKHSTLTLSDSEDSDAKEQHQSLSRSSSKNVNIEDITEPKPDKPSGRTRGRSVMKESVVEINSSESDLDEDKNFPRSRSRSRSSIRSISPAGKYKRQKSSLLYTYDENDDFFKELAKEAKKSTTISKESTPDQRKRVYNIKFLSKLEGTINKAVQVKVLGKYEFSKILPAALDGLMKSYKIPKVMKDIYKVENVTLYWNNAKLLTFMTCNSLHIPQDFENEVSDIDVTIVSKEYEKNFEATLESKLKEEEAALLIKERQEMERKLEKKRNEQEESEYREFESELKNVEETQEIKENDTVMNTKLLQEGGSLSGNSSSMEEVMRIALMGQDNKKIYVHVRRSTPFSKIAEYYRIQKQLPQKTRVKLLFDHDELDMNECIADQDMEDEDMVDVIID
The following applies: 7 nM DNA, 7 nM fluorescein-labeled DNA, 10 min at 37 C, recombinant protein, residues 1-456, protein details: GST tag removed.

Consider “AGCTACCATGCCTGCACGAATTAAGCAATTCGTAATCATGGTCATAGCT / CTACAGTTCGTCAGGATTCC / AATTCGTGCAGGCATGGTAGCT / AGCTATGACCATGATTACGAATTGCTTGGAATCCTGACGAACTGTAG [Fork (oligos 18, 20, 21, 22)]”, for which the binding result in data set [1] and in data set [2] was “binds” each time.
For “AGCTACCATGCCTGCACGAATTAAGCAATTCGTAATCATGGTCATAGCT [ssDNA (oligo 18)]”, in data set [3] (little affinity, label: 5'-fluorescein, single-stranded DNA), the binding result was “binds more weakly”.
For the sequence “AGCTACCATGCCTGCACGAATTAAGCAATTCGTAATCATGGTCATAGCT (double strand) [dsDNA (oligos 18, 19)]”, the binding result in data set [3] (bound, less preferred than flap and fork, label: 5'-fluorescein on strand 1) is “binds more weakly”.
